Measurements reported in PubChem BioAssay AID1508597 (Cure First, 2020).
This is a random part of the about 2,100 reagents, in one setting of the screen. 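Calls flag viability under 80% in either arm, not effects specific to rucaparib; the reference for percent is not stated.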 A reagent listed more than once was tested more than once; the source does not tell the runs apart. Not given: the 100% reference.

- Screen: 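Survival screen with siRNA in ovarian cancer cells derived from patients, with or without rucaparib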 (primary screen)
- Cell system: human ovarian carcinoma lines grown from tumours: OCI-P5x (papillary serous) and OCI-C5x (clear cell)
- Reagent: siRNA pool against human genes, 1.25 pmol siRNA per well
- Timing: 72 h or 96 h, depending on the cell culture
- Conditions: rucaparib 20 µM (about IC30) or vehicle, present until read-out
- Rucaparib or vehicle: Vehicle
- Cell line: OCI-C5x (clear cell)
- Read-out: 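Luminescent ATP-based viability assay read 72 or 96 h after transfection, depending on culture, given as normalised percent viability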
- Scale: viability, normalised: higher = more viable cells remaining
- Hit rule: 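a well counts as a hit if its normalised viability is under 80 percent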
- Meaning of the calls: active = viability under 80%; inactive = viability 80% or more

gene	technical replicate	viability, normalised (%)	call
PKN3	1	56	active
PKN3	2	63.7	active
PKN3	3	52.9	active
ATRX	1	38.1	active
ATRX	1	59.1	active
ATRX	2	58	active
ATRX	2	45.6	active
ATRX	3	54.8	active
ATRX	3	48.9	active
DDX17	1	56.3	active
DDX17	1	38.3	active
DDX17	2	50.7	active
DDX17	2	31.4	active
DDX17	3	66.7	active
DDX17	3	53.5	active
RCOR3	1	60.2	active
RCOR3	2	59.7	active
RCOR3	3	64.5	active
DRD3	1	49	active
DRD3	2	34.8	active
DRD3	3	47.5	active
DYRK3	1	71.7	active
DYRK3	2	43.5	active
DYRK3	3	69.3	active
PHF7	1	33.9	active
PHF7	2	38.4	active
PHF7	3	33.1	active
KIT	1	62.1	active
KIT	2	54.1	active
KIT	3	50.2	active
DCLRE1C	1	45.2	active
DCLRE1C	1	17	active
DCLRE1C	2	56.3	active
DCLRE1C	2	16	active
DCLRE1C	3	18.4	active
DCLRE1C	3	40.4	active
CHD9	1	60.7	active
CHD9	2	58	active
CHD9	3	63.4	active
BAK1	1	52.6	active
BAK1	2	51.4	active
BAK1	3	41.7	active
OARD1	1	25.6	active
OARD1	2	41.4	active
OARD1	3	41.6	active
CUBN	1	27.6	active
CUBN	2	40	active
CUBN	3	39.8	active
IP6K2	1	69.1	active
IP6K2	2	61	active
IP6K2	3	56.4	active
NME4	1	48.3	active
NME4	1	67	active
NME4	1	36	active
NME4	2	37.4	active
NME4	2	59.7	active
NME4	2	38.1	active
NME4	3	46.6	active
NME4	3	39.2	active
NME4	3	41.7	active

Look-ups from the list.
Result of OARD1, technical replicate 2 in “call”: active
IP6K2, technical replicate 1, viability, normalised (%) = 69.1
For “call”, PHF7, technical replicate 2 reads active
Under “call”, PKN3, technical replicate 1 reads active
